Measurements as given in patent publication US20020055130A1, “Method and product for regulating apoptosis” (National Jewish Center for Immunology and Respiratory …, priority 1997, published 2002).
For at least one compound, name, drawing or mass did not settle the structure.

System: p42/p44 MAPK
Experiment: MAPK assay (EGFR662-681 peptide), L929 cells
Assay type: cell-based, murine
Protocol: MAPK Assay MAPK activity was measured exactly as described previously (Gardner, A. M., et al. (1994) Meth. Enzymol. 238:258-270) with the exception that MonoQ FPLC fractionation was replaced by step elution from a DEAE-Sephacel column using 0.5 M NaCl in loading buffer. The eluate was assayed in triplicate using the epidermal growth factor receptor 662-681 peptide (EGFR662-681) as a selective substrate for MAPK activity (Heasley, L. E., et al. (1994) American Journal of Physiology (Renal Fluid Electrolyte Physiol. 36) 267:F366-F373).

Question: For `COC[C@H]1OC(=O)c2coc3c2[C@@]1(C)C1=C(C3=O)[C@@H]2CCC(=O)[C@@]2(C)C[C@H]1OC(C)=O` [wortmannin], which “effect on bFGF stimulation of MAPK activity” value is on record?
Answer: no effect on the ability of bFGF to stimulate MAPK activity
